Measured values taken from patent US20140274688A1, “MOLECULES HAVING CERTAIN PESTICIDAL UTILITIES, AND INTERMEDIATES, COMPOSITIONS, AND PROCESSES RELATED THERETO” (DOW AGROSCIENCES LLC, priority 2013, published 2014).
Some entries share one result that the patent states for a list of compounds.

Test system: Green Peach Aphid ("GPA") (Myzus persicae)
Test: Bioassay on Green Peach Aphid (GPA), foliar spray on cabbage seedlings, corrected % control
Assay type: in vivo
Conditions: Table ABC (P), rating of corrected % control

## Cc1ccc(C(C)C)c(N2C(=O)CS/C2=N\C(=O)NCCCCc2ccc(-c3ncn(-c4ccc(OC(F)(F)F)cc4)n3)cc2)c1 [P150, (Z)-1-(3-(2-isopropyl-5-methylphenyl)-4-oxothiazolidin-2-ylidene)-3-(4-(4-(1-(4-(trifluoromethoxy)phenyl)-1H-1,2,4-triazol-3-yl)phenyl)butyl)urea]
  GPA: B (More than 0-Less than 80)
